The text below walks through data of publication PMC5707448, “Luminescent platinum(II) complexes with self-assembly and anti-cancer properties: hydrogel, pH dependent emission color and sustained-release properties under physiological conditions” (Chemical Science, 2015).

Series [1] deals with HeLa cells. The series can be described thus: Cell imaging by fluorescence microscopy (cellular uptake). Format: cell-based, human. The conditions noted are these: 10 μM, 20 min.
The test system of series [2] is HeLa cells. The series can be described thus: Co-localization study by confocal microscopy. It is filed as cell-based, human. The note with it: 10 μM, 1 h.

Regarding `Cc1cccc(C)c1[N+]#[C][Pt-2]12[c]3ccccc3-c3cccc([n+]31)-c1cc[nH][n+]12.[Cl-]` (stereo not drawn) [Complex 1a, [Pt(C^N^N^pyr)(C?NR^1)]Cl], in the series on HeLa cells [1], the “Cellular uptake (green emission in cytoplasm)” value is on record as “efficient cellular uptake”.
For `CCCC[N+]#[C][Pt-2]12[c]3ccccc3-c3cccc([n+]31)-c1cc[nH][n+]12.[Cl-]` (stereo not drawn) [Complex 2], the “Cellular uptake (green emission in cytoplasm)” value in the series with HeLa cells [1] is listed as “efficient cellular uptake”. For the same compound, in the series on HeLa cells [2], the “Pearson's coefficient R, green and orange emission vs Hoechst 33342” value is reported as less than 0.15; the “Pearson's coefficient R, green and orange emission vs Mitotracker Red” value was less than 0.15. Moreover, the “Pearson's coefficient R, green emission vs LysoTracker Red” value in the series with HeLa cells [2] (emission channel 500–550 nm) stood at 0.60. In addition, the “Pearson's coefficient R, orange emission vs LysoTracker Red” value in the series with HeLa cells [2] (emission channel 650–700 nm) is reported as 0.75.
